From doi:10.1101/2025.07.24.666230
These are yes or no findings as the source states them, for the method shown. In cells and extracts the contact can be indirect. Some binding calls cover weakened binding; strength is not graded here. For part of these data: Sequences can lack the tags named with a protein.

Protein sequences, listed by entry. Tags and fused reporters are not part of them. Lines headed by an entry give the natural chain unless they say otherwise; changes in a name come on top.
UniProt P11413, whole entry: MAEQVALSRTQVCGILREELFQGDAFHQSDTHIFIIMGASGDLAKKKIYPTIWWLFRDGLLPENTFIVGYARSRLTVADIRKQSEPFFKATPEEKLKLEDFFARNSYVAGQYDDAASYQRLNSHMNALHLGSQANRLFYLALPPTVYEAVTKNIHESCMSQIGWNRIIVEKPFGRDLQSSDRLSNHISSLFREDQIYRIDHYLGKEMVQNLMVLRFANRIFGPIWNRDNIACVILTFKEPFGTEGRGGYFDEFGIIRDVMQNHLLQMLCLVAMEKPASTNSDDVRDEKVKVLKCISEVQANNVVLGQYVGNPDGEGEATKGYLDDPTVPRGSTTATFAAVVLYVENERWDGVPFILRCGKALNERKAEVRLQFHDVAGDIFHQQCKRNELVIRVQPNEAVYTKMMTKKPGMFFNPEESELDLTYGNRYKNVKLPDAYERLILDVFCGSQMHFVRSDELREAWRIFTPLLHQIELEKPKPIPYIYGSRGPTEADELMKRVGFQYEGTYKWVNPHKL

T1: NADK palmitoylation deficient mutant (3CS: C22S/C23S/C26S) (human) (UniProt O95544)
T1 sequence: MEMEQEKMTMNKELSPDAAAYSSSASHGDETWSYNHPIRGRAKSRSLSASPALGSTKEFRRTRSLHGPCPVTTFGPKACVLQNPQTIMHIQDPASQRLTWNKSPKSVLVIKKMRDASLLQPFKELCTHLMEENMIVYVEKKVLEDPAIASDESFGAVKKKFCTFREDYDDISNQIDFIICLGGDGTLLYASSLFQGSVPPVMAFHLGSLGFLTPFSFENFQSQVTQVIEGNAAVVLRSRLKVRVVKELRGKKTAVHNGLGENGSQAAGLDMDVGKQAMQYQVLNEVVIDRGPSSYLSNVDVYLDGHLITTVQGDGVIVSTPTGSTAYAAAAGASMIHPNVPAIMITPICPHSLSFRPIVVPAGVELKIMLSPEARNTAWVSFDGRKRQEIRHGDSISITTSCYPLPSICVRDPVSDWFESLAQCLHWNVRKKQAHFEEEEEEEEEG

T2: His-NADK recombinant protein (pET-28a-NADK) (human) (UniProt O95544)
T2 sequence: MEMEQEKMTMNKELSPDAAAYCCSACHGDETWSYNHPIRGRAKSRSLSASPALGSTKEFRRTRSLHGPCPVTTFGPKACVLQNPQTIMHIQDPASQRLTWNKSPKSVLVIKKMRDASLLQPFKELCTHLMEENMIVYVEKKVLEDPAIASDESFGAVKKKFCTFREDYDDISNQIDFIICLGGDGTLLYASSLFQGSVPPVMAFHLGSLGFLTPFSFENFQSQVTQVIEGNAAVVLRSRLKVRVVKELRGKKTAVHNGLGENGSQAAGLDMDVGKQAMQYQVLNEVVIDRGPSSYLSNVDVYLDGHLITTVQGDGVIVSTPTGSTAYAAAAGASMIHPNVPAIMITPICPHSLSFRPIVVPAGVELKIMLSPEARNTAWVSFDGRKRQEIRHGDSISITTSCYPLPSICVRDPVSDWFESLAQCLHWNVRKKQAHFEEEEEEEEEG

T3: HA-NADK (NAD kinase), wild type (human) (UniProt O95544)
T3 sequence: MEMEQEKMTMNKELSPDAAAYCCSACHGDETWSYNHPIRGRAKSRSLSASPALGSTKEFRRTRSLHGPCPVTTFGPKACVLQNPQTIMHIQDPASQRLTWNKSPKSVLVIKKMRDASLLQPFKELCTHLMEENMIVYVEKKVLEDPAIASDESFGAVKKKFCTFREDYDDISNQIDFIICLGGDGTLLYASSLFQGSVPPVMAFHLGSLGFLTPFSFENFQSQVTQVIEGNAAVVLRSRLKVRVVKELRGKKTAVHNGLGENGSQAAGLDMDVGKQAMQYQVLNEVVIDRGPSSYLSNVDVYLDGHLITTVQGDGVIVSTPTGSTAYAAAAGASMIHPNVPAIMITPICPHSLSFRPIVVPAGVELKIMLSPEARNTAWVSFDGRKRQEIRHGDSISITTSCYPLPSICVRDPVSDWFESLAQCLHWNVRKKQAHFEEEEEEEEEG


What was measured:
[1] = biological target: T1, NADK palmitoylation deficient mutant (3CS: C22S/C23S/C26S) (human); experiment: co-IP
[2] = biological target: T2, His-NADK recombinant protein (pET-28a-NADK) (human); experiment: pull-down
[3] = biological target: T3, HA-NADK (NAD kinase), wild type (human); experiment: co-IP

| binding [1] | binding [2] | binding [3] | Molecule |
| --- | --- | --- | --- |
| binds | – | – | G6PD (from UniProt P11413 1-515) (enzyme) |
| – | binds | binds | Flag-ABHD17A (enzyme, UniProt Q96GS6 1-310) MNGLSLSELCCLFCCPPCPGRIAAKLAFLPPEATYSLVPEPEPGPGGAGAAPLGTLRASSGAPGRWKLHLTERADFQYSQRELDTIEVFPTKSARGNRVSCMYVRCVPGARYTVLFSHGNAVDLGQMSSFYIGLGSRLHCNIFSYDYSGYGASSGRPSERNLYADIDAAWQALRTRYGISPDSIILYGQSIGTVPTVDLASRYECAAVVLHSPLTSGMRVAFPDTKKTYCFDAFPNIEKVSKITSPVLIIHGTEDEVIDFSHGLALYERCPKAVEPLWVEGAGHNDIELYSQYLERLRRFISQELPSQRA |
